Screening data, single-dose tests

Each number is a percent effect as filed.
The record does not define 0% and 100%; most values in the screen are far below 50% and negative numbers occur (in some assays of this library far below -100).
The compounds are a random part of those screened.

Mtb cholesterol medium: 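Growth of Mycobacterium tuberculosis over 4 days (cholesterol / DPPC medium with tyloxapol); the read-out is not stated. Concentration: 500 µM. Direction is inferred from retests: higher values go with more growth inhibition. Of about 18,000 compounds tested this way, about 900 (5%) reached 50% or more in at least one test.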
Mtb glucose medium: 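Phenotypic screen: M. tuberculosis growth, glucose 7H9 medium, 3 days; the read-out is not stated. Compounds at 500 µM. Direction is inferred from retests: higher values go with more growth inhibition. About 18,000 compounds were tested under these conditions; 7.9% (about 1,400) showed 50% or more at least once.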

{"compound": "CSc1nc2ccsc2c(=O)n1CC(=O)N1CCCC1", "Mtb cholesterol medium": 33.64, "Mtb glucose medium": 2.609}
{"compound": "CCC(=O)N1CCC(CC(=O)N2CCOCC2)C1", "stereo": "centres undefined", "Mtb cholesterol medium": -7.214, "Mtb glucose medium": -7.783}
{"compound": "O=S1(=O)CCNCC1", "Mtb cholesterol medium": -6.948, "Mtb glucose medium": -7.791}
{"compound": "O=C(CC1CCNCC1)N1CCCSCC1", "Mtb cholesterol medium": -18.1, "Mtb glucose medium": -1.173}
{"compound": "CC(C)NC(=O)CNC(=O)c1cccc(C(F)(F)F)c1", "Mtb cholesterol medium": -3.329, "Mtb glucose medium": -3.989}
{"compound": "Cc1nn(C)c(Cl)c1CN1CCCC1CS(N)(=O)=O", "stereo": "centres undefined", "Mtb cholesterol medium": 16.27, "Mtb glucose medium": 0.3179}
{"compound": "CCN(CC)C(=O)C1Cn2cccc2C(=O)N1C", "stereo": "centres undefined", "Mtb cholesterol medium": 8.285, "Mtb glucose medium": 10.41}
{"compound": "COc1ccc(C(C)=O)cc1CC(=O)Nc1nncs1", "Mtb cholesterol medium": -10.57, "Mtb glucose medium": 1.189}
{"compound": "Cc1csc(N2CCCN(C(=O)c3ccoc3)CC2)n1", "Mtb cholesterol medium": 6.051, "Mtb glucose medium": 27.31}
{"compound": "CCC(C)OCC(=O)N1CCOc2nc(C)ccc21", "stereo": "centres undefined", "Mtb cholesterol medium": -2.328, "Mtb glucose medium": -0.2009}
{"compound": "CCc1csc(S(N)(=O)=O)n1", "Mtb cholesterol medium": 1.23, "Mtb glucose medium": 6.24}
{"compound": "CCNC(=O)c1cc(C)oc1C", "Mtb cholesterol medium": -35.83, "Mtb glucose medium": -24.38}
{"compound": "OC(Cc1ccncc1)C(F)(F)F", "stereo": "centres undefined", "Mtb cholesterol medium": -17.73, "Mtb glucose medium": -0.3537}
{"compound": "NC(=O)c1ccc2sccc2c1", "Mtb cholesterol medium": 3.957, "Mtb glucose medium": 28.46}
{"compound": "COCC(=O)NCCC(=O)N1CCCc2ccccc21", "Mtb cholesterol medium": -11.12, "Mtb glucose medium": -13.44}
{"compound": "COc1ccnc(N2CCN(S(C)(=O)=O)CC2)n1", "Mtb cholesterol medium": -7.647, "Mtb glucose medium": -8.637}
{"compound": "O=C(CN1CCN(C(=O)c2ccco2)CC1)NC1CC1", "Mtb cholesterol medium": -5.181, "Mtb glucose medium": 13.24}
{"compound": "O=C(NCC(O)c1cccs1)NC1CCOCC1", "stereo": "centres undefined", "Mtb cholesterol medium": -1.408, "Mtb glucose medium": -5.047}
{"compound": "Cc1ccc(CN)c(S(C)(=O)=O)c1", "Mtb cholesterol medium": 5.225, "Mtb glucose medium": 12.83}
{"compound": "Cc1ccc2c(n1)OCCN2C(=O)c1cnn(C)c1C", "Mtb cholesterol medium": 9.044, "Mtb glucose medium": 25.16}
{"compound": "CC(C)NC(=O)NCCCNC(=O)C(C)C", "Mtb cholesterol medium": -10.35, "Mtb glucose medium": -3.089}
{"compound": "CCN(CC)C(=O)CCNc1ccncc1Cl", "Mtb cholesterol medium": 4.041, "Mtb glucose medium": 13.99}
{"compound": "Cc1ccc(-c2noc(CNS(C)(=O)=O)n2)cc1", "Mtb cholesterol medium": 72.04, "Mtb glucose medium": 55.78}
{"compound": "CC(C)OCc1cccc(NC(C)C(=O)NC(N)=O)c1", "stereo": "centres undefined", "Mtb cholesterol medium": 5.622, "Mtb glucose medium": 24.73}
{"compound": "CC(C)CS(=O)(=O)CCNC(=O)Cn1cccnc1=O", "Mtb cholesterol medium": -3.045, "Mtb glucose medium": 9.546}
{"compound": "COc1ccc2[nH]c(C(C)N)nc2c1", "stereo": "centres undefined", "Mtb cholesterol medium": 4.052, "Mtb glucose medium": 25.01}
{"compound": "CN(CCC(N)=O)Cc1ccc(Br)o1", "Mtb cholesterol medium": 20.22, "Mtb glucose medium": 18.41}
{"compound": "c1ccc(CNC2CCSC2)nc1", "stereo": "centres undefined", "Mtb cholesterol medium": 16.22, "Mtb glucose medium": 26.55}
{"compound": "COCCN(CCOC)Cc1cc(-c2ccco2)on1", "Mtb cholesterol medium": 35.49, "Mtb glucose medium": 46.03}
{"compound": "CC(NC(=O)OC(C)(C)C)c1nnc2n1CCC2", "stereo": "centres undefined", "Mtb cholesterol medium": -2.311, "Mtb glucose medium": -0.1008}
{"compound": "CCN1CCN(Cc2ccc3c(c2)OCO3)CC1", "Mtb cholesterol medium": 6.882, "Mtb glucose medium": 7.907}
{"compound": "Nc1ccnc(-c2ccccc2)n1", "Mtb cholesterol medium": 28.88, "Mtb glucose medium": 23.47}
{"compound": "NC(Cc1ccccc1)C(=O)N1Cc2ccccc2C1", "stereo": "centres undefined", "Mtb cholesterol medium": 40.21, "Mtb glucose medium": 45.58}
{"compound": "CN[C@@H](C)C(=O)N1CC(Oc2ccccc2OC)C1", "Mtb cholesterol medium": -10.17, "Mtb glucose medium": 0.2088}
{"compound": "COCCNc1nc(-c2ccc(O)cc2O)cs1", "Mtb cholesterol medium": 36.25, "Mtb glucose medium": 49.13}
{"compound": "O=C1CNCCN1c1cccc(F)c1", "Mtb cholesterol medium": -1.991, "Mtb glucose medium": -3.718}
{"compound": "O=C(CN1CCC(CO)CC1)N1CCc2sccc2C1", "Mtb cholesterol medium": 0.11, "Mtb glucose medium": 11.19}
{"compound": "O=C(CNC(=O)c1ccc2c(c1)OCO2)NCC1CC1", "Mtb cholesterol medium": 1.845, "Mtb glucose medium": 10.14}
{"compound": "Cc1cc(N2CCOC(CCN)C2)n2nccc2n1", "stereo": "centres undefined", "Mtb cholesterol medium": -2.273, "Mtb glucose medium": 18.21}
{"compound": "NCc1csc(N)n1", "Mtb cholesterol medium": 1.953, "Mtb glucose medium": 6.79}
{"compound": "CCCc1cc(C(=O)NCCc2nc(C)c[nH]2)[nH]n1", "Mtb cholesterol medium": -0.04016, "Mtb glucose medium": 5.5}
{"compound": "CC[C@@H](O)CNC(C)c1ccncc1", "stereo": "some centres undefined", "Mtb cholesterol medium": -2.913, "Mtb glucose medium": 0.7063}
{"compound": "COc1ccc(C(C)N)cn1", "stereo": "centres undefined", "Mtb cholesterol medium": -1.86, "Mtb glucose medium": 4.423}

For reference, 5 entries once more:

{"compound": "O=C(NCC(O)c1cccs1)NC1CCOCC1", "stereo": "centres undefined", "Mtb cholesterol medium": -1.408, "Mtb glucose medium": -5.047}
{"compound": "CCC(=O)N1CCC(CC(=O)N2CCOCC2)C1", "stereo": "centres undefined", "Mtb cholesterol medium": -7.214, "Mtb glucose medium": -7.783}
{"compound": "COc1ccnc(N2CCN(S(C)(=O)=O)CC2)n1", "Mtb cholesterol medium": -7.647, "Mtb glucose medium": -8.637}
{"compound": "CCc1csc(S(N)(=O)=O)n1", "Mtb cholesterol medium": 1.23, "Mtb glucose medium": 6.24}
{"compound": "COCCN(CCOC)Cc1cc(-c2ccco2)on1", "Mtb cholesterol medium": 35.49, "Mtb glucose medium": 46.03}

The values are deposited in ChEMBL (CHEMBL3988442, “University of Dundee, Small-Polar-MMV Screening Library” (2021)).